For some of these results: Results from cells or extracts need not show a direct contact. For some of these results: No signal at the amounts used counts as a negative. For some of these results: The comparison behind a weaker result is the experiment's own reference, which may not be listed here. For some of these results: The exact form of at least one protein or probe is not confirmed. For some of these results: Protein sequences can lack the tags named with them.
Tests used:
[1] = target: T1, rHMG-I (recombinant HMG-I) (UniProt P17096); test: SELEX; settings: purified recombinant protein, protein details: expressed in E. coli
T1 sequence (looked up, limits assumed): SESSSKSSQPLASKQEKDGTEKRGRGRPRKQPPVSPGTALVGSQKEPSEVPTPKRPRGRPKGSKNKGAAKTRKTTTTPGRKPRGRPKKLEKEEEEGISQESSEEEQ

The chains behind the UniProt entries cited, without tags or fusion partners. Residues count along the entry.
UniProt P08621, 2-437: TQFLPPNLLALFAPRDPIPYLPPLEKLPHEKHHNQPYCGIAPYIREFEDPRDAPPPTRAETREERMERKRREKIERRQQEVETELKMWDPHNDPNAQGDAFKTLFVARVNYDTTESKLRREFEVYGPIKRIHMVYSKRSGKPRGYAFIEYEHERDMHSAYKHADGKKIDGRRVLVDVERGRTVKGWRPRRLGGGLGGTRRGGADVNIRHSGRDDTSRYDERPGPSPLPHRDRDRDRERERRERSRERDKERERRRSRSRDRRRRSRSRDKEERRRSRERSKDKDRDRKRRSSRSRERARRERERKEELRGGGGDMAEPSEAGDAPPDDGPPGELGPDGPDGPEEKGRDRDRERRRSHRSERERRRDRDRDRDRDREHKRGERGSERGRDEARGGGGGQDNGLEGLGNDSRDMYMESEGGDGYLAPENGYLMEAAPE

[2] = target: HMG-I (HMGA1a) (Homo sapiens) (UniProt P17096); test: binding assay; settings: UV crosslinking, protein in an extract, label: 35S
[3] = target: U1 (70K) snRNP (Homo sapiens) (UniProt P08621); test: EMSA; settings: anti-U1 70K supershift in mock-transfected extract; absent in HMG-I transfected extract; protein in an extract; protein details: endogenous, SK-N-SH nuclear extract; label: 32P
[4] = target: HMG-I (HMGA1a) (Homo sapiens) (UniProt P17096); test: EMSA; settings: supershifted by anti-HMG-I/Y; 60 mM KCl, 4 mM MgCl2, tRNA, 25 C; also UV crosslinking positive (FIGS. 5, 12); protein in an extract; label: 35S or 32P

Sequence	selection result [1]	other results
TTGAATTAGGGTGCTATATGTTTTGCATTTT (double strand) [HMG-I selected DNA]	selected	–
GCUCUACAAGGCUGCUACAAG [RNA probe No. 7]	–	binding result ([2]; repeats joined directly, variant of PS2 pre-mRNA probe No. 5): binds
TGTTTCGCGTAAAGTATTACGTTGCTCTTTT (double strand) [HMG-I selected DNA]	selected	–
GTGGATAAATTCCCCAATGTTATCTTATGAA (double strand) [HMG-I selected DNA]	–	selection result ([1]; also listed as SEQ 56): selected
UGGUGGUGCUCUACAAGUACCGCUGCUACAAGGUGAGGCCCUGGCCCUGCCCUCCAGCCACGCUUCUCUCCG [RNA probe No. 12]	–	binding result [3]: binds
TATCCAGTGGATAATTCCCCAATGTTATCT (double strand) [HMG-I selected DNA]	selected	–
UGGUGGUGCUCUACAAGUACCGCUGCUACAAGGUGAGGCCCU [PS2 pre-mRNA probe No. 5]	–	binding result [4]: binds
GGTGCCGATACGTAACTCACCGCATTCTTGG (double strand) [HMG-I selected DNA]	selected	–
TTGAATTAGGGTGCTATATTTTTGCATTTTGA (double strand) [HMG-I selected DNA]	selected	–
CACTTTGAATTAGGGTGCTATATGTTTTGCA (double strand) [HMG-I selected DNA]	selected	–
CCACTTTGAATTAGGGTGCTATATTTTTGCAT (double strand) [HMG-I selected DNA]	selected	–
GGCCGCGTGTAGATATTGGGATTTGGTGTG (double strand) [HMG-I selected DNA]	selected	–
TGAGGCATGAAGGTAATTACTGCATATTGA (double strand) [HMG-I selected DNA]	selected	–
TCTGAGGCATGAAGGTAATTACTGCATCATT (double strand) [HMG-I selected DNA]	selected	–
GAGGTGTCAGGCGACACCTAAAAATTCACGC (double strand) [HMG-I selected DNA]	selected	–
CTTCTGCGGTATAAGGTGGGTTGGTGTGCTC (double strand) [HMG-I selected DNA]	selected	–
GGTTCATTCTGCGGTATGGTTATCTG (double strand) [HMG-I selected DNA]	–	selection result ([1]; immunoprecipitation selection): selected
GTCGGGCCTGTATTTTGGTTGCTATTTTGAA (double strand) [HMG-I selected DNA]	–	selection result ([1]; also listed as SEQ 49): selected
CGTTCTCTTTCGGAAACGGTTTTTGAGCACG (double strand) [HMG-I selected DNA]	selected	–
GTGGAGGCTGCCGCGAGTTATCACAGTATAG (double strand) [HMG-I selected DNA]	selected	–

Sequence	selection result [1]	other results
AGGTTCGTGCACCCGGACCACAGTTTTTTCA (double strand) [HMG-I selected DNA]	selected	–
CTTTGAATTAGGGTGCTATATGGTTTGCATTTT (double strand) [HMG-I selected DNA]	selected	–
GCUCUACAAGUACCGCUGCUACAAG [RNA probe No. 10]	–	binding result ([2]; higher than the single-repeat probes, variant of PS2 pre-mRNA probe No. 5): binds
CGTTCCGACCAATGGGTTCGGATAATACGTT (double strand) [HMG-I selected DNA]	–	selection result ([1]; also listed as SEQ 58): selected
GGTGCCGATACGTAATCACCGCATTCTTGGC (double strand) [HMG-I selected DNA]	selected	–
GGGTGCCTAGCTCCGGAACATGGTTATTGA (double strand) [HMG-I selected DNA]	selected	–
CGTGTTTCGCCAGAACCGCACTAGAGCAATTTGAA (double strand) [HMG-I selected DNA]	selected	–
TGACCAAGTAAATCCGTCCCTCACTAGTGAA (double strand) [HMG-I selected DNA]	selected	–
GCGAGTCGGGCCTGTATTTTGGTTGCTATTT (double strand) [HMG-I selected DNA]	–	selection result ([1]; also listed as SEQ 50): selected
UGGUGGUGCUCUACAAGUA [RNA probe No. 9]	–	binding result ([2]; SEQ 1 repeat only, lower than probe 10, variant of PS2 pre-mRNA probe No. 5): binds more weakly
CGTTCTCTTTCGGAAATTTTTGAGCACG (double strand) [HMG-I selected DNA]	selected	–
GGTGCCGATACGTAACTCACCGCATTTTGGC (double strand) [HMG-I selected DNA]	selected	–
ATCTGTAATTCCATGGTGGCTACTGGAACTA (double strand) [HMG-I selected DNA]	selected	–
ATATCCTGCCAAAAATTTGTTCTCGGGGCTGA (double strand) [HMG-I selected DNA]	selected	–
GCCATGTTTTTAGATAATTGTGCTTAGGCGT (double strand) [HMG-I selected DNA]	selected	–
GACCAUCUUCUUGGUGGU [RNA probe No. 6]	–	binding result ([2]; both repeats missing, variant of PS2 pre-mRNA probe No. 5): no binding
GCUCUAAAAGUACCGCUGCUAAAAG [RNA probe No. 8]	–	binding result ([2]; C to A in both repeats, variant of RNA probe No. 10): no binding
CTTTGAATTAGGGTGCTATATTTTTGCATTTT (double strand) [HMG-I selected DNA]	selected	–
CCGCUGCUACAAGGUGAGGCCCU [RNA probe No. 11]	–	binding result ([2]; SEQ 2 repeat only, lower than probe 10, variant of PS2 pre-mRNA probe No. 5): binds more weakly
ACCTAGGTTATTCTGCGGTATGGTTATCTG (double strand) [HMG-I selected DNA]	–	selection result ([1]; also listed as SEQ 63): selected
